PubChem BioAssay AID1259415 (National Center for Advancing Translational Sciences (NCATS), 2018)
The campaign covered roughly 410,000 compounds. About 18,000 (4.4%) were called active. Inconclusive results, whose numbers are uncertain, are shown with a selection of clear calls. Cut-off read from the data, not from the text of the source: active = activity change below about -60%; inconclusive = no clear call, values can overlap the other calls; inactive = above about -39%.

test: qHTS Assay for inhibitors of the human cytomegalovirus (HCMV); conditions: HFF cells, HCMV-luciferase reporter, 72 h; at 57.5 µM; stronger effect = lower value
Summary of the method: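 HFF cells seeded 16 h at 37C, treated with compounds, infected with luciferase-reporter HCMV at MOI 1 PFU/cell; luciferase read at 72 h post infection, normalized to buffer-only and Salinomycin controls.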
% is set by controls: 0 for no effect and ±100 for the full control effect.

Structure (SMILES) | activity change, negative = inhibition
Cc1c(OCC(=O)N(C)C)ccc2c3c(c(=O)oc12)CCCCC3 | inconclusive: -59.1%
COCCNc1nc(Nc2ccccc2Cl)c2sc(-c3ccccc3)cc2n1 | inconclusive: -43.1%
Cc1cnc(C)c(N2CCN(Cc3nc(-c4cccc(F)c4F)oc3C)CC2)n1 | inconclusive: -40.8%
CC(C)(C)c1ccc(-n2ncc3c2CCCC3NC(=O)CN2CCOC2=O)cc1 (centres undefined) | inconclusive: -44%
Cc1cccc(Nc2nc(N)c([N+](=O)[O-])c(NCc3ccccc3)n2)c1 | active: -94.2%
COc1ccc(CCC(=O)NCc2nc3cccnc3n2Cc2ccccc2)cc1 | inconclusive: -54%
CC1Cc2cc(S(=O)(=O)CCC(=O)Nc3ccc(Cl)cc3F)ccc2N1C(=O)C1CC1 (centres undefined) | inconclusive: -50.6%
Cc1c(C(=O)N/N=C/c2ccc(-c3ccccc3[N+](=O)[O-])o2)sc(N)c1C#N | inconclusive: -46.3%
CCN(CC)C(=O)[C@H]1CC(CC(=O)NC/C=C(\C)CCC=C(C)C)C(=O)N2CCc3c([nH]c4ccc(OC)cc34)[C@]12C (some centres undefined) | inconclusive: -55.6%
O=C(NCCSc1c(-c2ccc(F)cc2)[nH]c2ccccc12)c1ccc(S(=O)(=O)N2CCOCC2)cc1 | inconclusive: -46.9%
CC(C)CC1C(=O)N(Cc2cn(Cc3ccco3)nn2)CCS(=O)(=O)N1Cc1ccc(-c2cccc(N(C)C)c2)cc1 (centres undefined) | active: -101%
COc1cccc(NC(=O)C2CCN(C(=O)N3CC(C)Oc4ccccc43)CC2)c1 (centres undefined) | inactive: 1.94%
Cc1ccc(S(=O)(=O)NCCC(=O)Nc2cccc(Cl)c2)cc1 | inconclusive: -45.7%
O=C(N/C(=C\c1ccc([N+](=O)[O-])cc1)C(=O)N1CCOCC1)c1ccco1 | inactive: 34.8%
CC1C(=O)N(Cc2ccc([N+](=O)[O-])cc2)c2ccccc2N1C(=O)c1c(F)cccc1F (centres undefined) | inconclusive: -44.4%
CC[C@@H](C(=O)[C@@H](C)[C@@H](O)[C@H](C)[C@@H]1O[C@@H]([C@@H](CC)C(=O)O)CC[C@@H]1C)[C@H]1O[C@]2(C=C[C@@H](O)[C@]3(CC[C@@](C)([C@H]4CC[C@](O)(CC)[C@H](C)O4)O3)O2)[C@H](C)C[C@@H]1C | active: -98.1%
Cc1cccc(CN2CCc3nc(N4CCN(c5ccccn5)CC4)ncc3C2)c1 | inconclusive: -58.5%
Cc1cc(NC(=O)CSc2nc3sc4c(c3c(=O)n2C)CCCC4)no1 | inactive: 5.44%
OCC[C@@H]1C[C@@H](O)[C@H](O)[C@@]2(OCCc3ccccc32)O1 | inactive: 35.9%
Cc1c(-c2nsc(NC(=O)c3cccs3)n2)nnn1-c1ccc(Br)cc1 | active: -92%
N#CC1=C(N)Oc2n[nH]c(-c3ccccc3)c2C12C(=O)Nc1ccccc12 (centres undefined) | inactive: 8.37%
Cc1cc2c(cc1C)C(c1cccc(F)c1)CC(=O)N2 (centres undefined) | inactive: 6.64%
COc1cc(NC(=O)c2ccccc2NS(=O)(=O)c2ccc(Cl)s2)cc(OC)c1 | active: -99.7%
CCc1ccc(NC(=O)Cn2c(=O)n(CCC(=O)NCc3ccc4c(c3)OCO4)c(=O)c3ccccc32)cc1 | inactive: 7.9%
CC1(C)CC(=O)c2cc3c(N)c(C(=O)NCc4ccccc4)sc3nc2C1 | inconclusive: -52.1%
O=C(Nc1ccccc1C(=O)NCc1ccco1)Nc1cccc2ccccc12 | inconclusive: -40.9%
Cc1ccc(/C=C2\SC(=S)N(CCCC(=O)Nc3ccccn3)C2=O)cc1 | active: -104%

Structure (SMILES) | activity change, negative = inhibition
CNC(=S)NNc1nc(-c2ccccc2)c2cc(Cl)ccc2n1 | active: -72.3%
Cn1nnnc1SCc1ccc(Cl)cc1 | inconclusive: -57%
CC1OC(OC2C(CO)OC(OCC3OC(OC(=O)[C@@]45CCC(C)(C)C[C@@H]4C4=CC[C@@H]6[C@@]7(C)CCC(OC8OCC(O)C(O)C8OC8OC(C)C(O)C(O)C8O)[C@@](C)(CO)C7CC[C@@]6(C)[C@]4(C)CC5)C(O)C(O)C3O)C(O)C2O)C(O)C(O)C1O (some centres undefined) | inconclusive: -53.3%
CCn1cc(C(=O)OCC(=O)Nc2cccc(C)c2)c(=O)c2ccc(C)nc21 | inactive: 37.7%
O=C(Nc1ccc(-c2cccc(F)c2)cc1)C1CCCN(Cc2ccccn2)C1 (centres undefined) | inconclusive: -46.7%
CC(C)(C)c1ccc(C(=O)NC2CCN(Cc3ccccc3)CC2)cc1 | inconclusive: -59.1%
CC1(C)N=C(N)N=C(N)N1c1ccc(Oc2ccc(Cl)cc2)c(Cl)c1 | active: -99.5%
Cc1cc(N2CCC(C)CC2)n2ncc(-c3ccccc3)c2n1 | active: -63.6%
Cc1c2ccccc2nc2c(F)c(NC(C)C)c(F)c(F)c12 | inactive: 37.3%
O=c1c2ccccc2oc2cc(C#CC3(O)CCCCC3)ccc12 | active: -80.2%
O=C(NCC1CCCCC1)c1ccc(Cl)c(S(=O)(=O)N2CCOCC2)c1 | inactive: 0%
CCOc1ccc(Cl)cc1S(=O)(=O)N1CCC(C(=O)NCc2ccco2)CC1 | inconclusive: -42.5%
CN(C(=O)COC(=O)c1ccccc1SCC(=O)NC1CCCCCCC1)C1CCS(=O)(=O)C1 (centres undefined) | inconclusive: -58.1%
CN(C)CCCNC(=O)C(=O)Nc1ccc2c(c1)N(S(=O)(=O)c1cccs1)CCC2 | inconclusive: -41.8%
CC#CCN(CC#CC)S(=O)(=O)c1ccc(-n2cnnn2)c(OC)c1 | inconclusive: -51.1%
Cn1c(=O)c2c(ncn2CC(COCc2ccc(Cl)cc2)OCc2ccc(Cl)cc2)n(C)c1=O (centres undefined) | inactive: -12.1%
Cc1ccc(OCC(=O)Nc2nnc(C3CCCO3)s2)c(Br)c1 (centres undefined) | inactive: -12%
COc1ccc2c(c1)N(C)C(=O)CC(c1ccccc1)=N2 | inconclusive: -53.4%
CC1Sc2ccc(S(=O)(=O)N(C)Cc3ccccc3)cc2NC1=O (centres undefined) | inconclusive: 0%
Cc1ccc(S(=O)(=O)NCCSc2nnnn2-c2ccc(Cl)c(C(=O)O)c2)cc1 | inactive: 9.62%
COc1cc(OC)c(NS(=O)(=O)c2ccc3c(c2)NC(=O)CCS3)cc1Cl | active: -62.9%
COc1ccc(C(CNc2ccc(C(F)(F)F)cn2)N(C)C)cc1OC (centres undefined) | inconclusive: -42%
COc1cc(/C=C/C(=O)c2ccc3c(c2)OCO3)cc(Cl)c1O | active: -62.3%
O=c1[nH]sc2cc(F)ccc12 | active: -98.2%
CCOc1ccc(-n2nc3cc(C)c(N)cc3n2)cc1 | inactive: 107%
COc1ccc(C(CNC(=O)COc2cccc(C(F)(F)F)c2)N2CCCC2)cc1 (centres undefined) | inactive: -9.36%
COc1ccccc1-n1c(=O)c2c3c(sc2n2c(SC(C)C)nnc12)CCC3 | inconclusive: -49.7%

Structure (SMILES) | activity change, negative = inhibition
Cc1ccn(CCC(=O)N2CCCC(N3CCN(c4ccccc4C)CC3)C2)n1 (centres undefined) | inconclusive: -54.6%
Cc1ccc(S(=O)(=O)N2CCC(c3ccncc3)CC2)c(C)c1 | inconclusive: -59.1%
C=CCC[C@H](Cc1ccc(F)cc1)C(=O)OC[C@H](C)NC(=O)[C@H](CC=C)CC(=O)N(CCO)Cc1ccccc1 | inconclusive: -41.6%
COCCCn1c(SCc2ccccc2)nc2cc(OC)c(OC)cc2c1=N | inactive: 41.9%
COc1ccc(NC(=O)c2sc(=O)n(Cc3ccccc3C#N)c2C)cc1OC | inconclusive: -46.8%
Cc1cc(C)nc(SCCC(=O)Nc2ccc(F)cc2)n1 | inconclusive: -40.2%
Cc1onc(-c2c(F)cccc2Cl)c1C(=O)Nc1cc(S(=O)(=O)N2CCCCC2)ccc1O | active: -100%
CCc1ccccc1NCC(=O)Nc1ccc(Cl)c(C(F)(F)F)c1 | inconclusive: -58.6%
COc1ccc(C2=NCC(=O)N(CC(=O)NCc3ccco3)c3sc4c(c32)CCCC4)cc1OC | inconclusive: -47.7%
CCCCN(C(=O)CSc1cc(C)c2ccc(OC)cc2n1)c1c(N)n(Cc2ccccc2)c(=O)[nH]c1=O | inconclusive: -42.1%
O=C(O)Cc1sc(Nc2ccccc2Cl)nc1-c1ccccc1 | active: -61%
COc1ccc(CCNC(=O)CN(c2cc(C(F)(F)F)ccc2Cl)S(C)(=O)=O)cc1 | inactive: 12.2%
Cc1ccccc1NC(=S)N1CCCC(c2nc3ccccc3[nH]2)C1 (centres undefined) | inactive: -7.39%
CN(CCc1ccccc1)C(=O)c1ccc(NC(=O)Cc2ccc(NC(=O)C3CCN(C(=O)c4ccccc4)CC3)cc2)cc1 | active: -62.5%
Cc1c(-c2ccccc2)c(-c2ccc(OCCN(C)C)cc2)n2ccccc12 | active: -73.8%
O=C(CSc1nnc(-c2cccs2)n1-c1ccccc1)Nc1ccccc1 | inconclusive: -47%
COC(=O)C1C=CC(OC2OC(COC(C)=O)C(OC(C)=O)C(OC(C)=O)C2OC(C)=O)n2c(=O)n(-c3ccccc3)c(=O)n21 (centres undefined) | active: -97.7%
CCN1CCCC1CNC(=O)C(=O)NC(C)c1ccccc1 (centres undefined) | inconclusive: -45.3%
CN(C)/C=N/c1c(C#N)cnn1-c1nc2ccccc2s1 | inconclusive: -47.9%
CCc1nnc(NC(=O)C2CCCN(S(=O)(=O)c3ccc(OC)cc3)C2)s1 (centres undefined) | inactive: -25%
Cc1ccc(-c2ccc(=O)n(CC(=O)N3CCN(c4cccc(C)c4)C(C)C3)n2)cc1 (centres undefined) | inconclusive: -47.7%
COc1ccc(NC(=O)CN(C)C(=O)c2ccccc2OCC(=O)Nc2cccc(C(F)(F)F)c2)cc1 | inconclusive: -48.2%
CCOc1cccc2cc(C(=O)Nc3ccccc3-c3ccccc3)c(=O)oc12 | inconclusive: -42.6%
COc1ccc(N(CC(=O)N/N=C/c2ccc(OC3CSC3)cc2)S(=O)(=O)c2ccccc2)cc1 | inconclusive: -41.2%
COc1ccc(CCNC(=O)CSc2nnc(-c3ccccc3)c3ccccc23)cc1OC | inconclusive: -55.6%

Four records drawn at random from the list so far, as already listed:
Structure (SMILES) | activity change, negative = inhibition
CCN1CCCC1CNC(=O)C(=O)NC(C)c1ccccc1 (centres undefined) | inconclusive: -45.3%
COc1ccc(C2=NCC(=O)N(CC(=O)NCc3ccco3)c3sc4c(c32)CCCC4)cc1OC | inconclusive: -47.7%
Cc1ccccc1NC(=S)N1CCCC(c2nc3ccccc3[nH]2)C1 (centres undefined) | inactive: -7.39%
CCc1ccccc1NCC(=O)Nc1ccc(Cl)c(C(F)(F)F)c1 | inconclusive: -58.6%
